{"sequences": {"note": "Chains of the proteins cited; added tags and fusions are not shown.", "UniProt P30260": "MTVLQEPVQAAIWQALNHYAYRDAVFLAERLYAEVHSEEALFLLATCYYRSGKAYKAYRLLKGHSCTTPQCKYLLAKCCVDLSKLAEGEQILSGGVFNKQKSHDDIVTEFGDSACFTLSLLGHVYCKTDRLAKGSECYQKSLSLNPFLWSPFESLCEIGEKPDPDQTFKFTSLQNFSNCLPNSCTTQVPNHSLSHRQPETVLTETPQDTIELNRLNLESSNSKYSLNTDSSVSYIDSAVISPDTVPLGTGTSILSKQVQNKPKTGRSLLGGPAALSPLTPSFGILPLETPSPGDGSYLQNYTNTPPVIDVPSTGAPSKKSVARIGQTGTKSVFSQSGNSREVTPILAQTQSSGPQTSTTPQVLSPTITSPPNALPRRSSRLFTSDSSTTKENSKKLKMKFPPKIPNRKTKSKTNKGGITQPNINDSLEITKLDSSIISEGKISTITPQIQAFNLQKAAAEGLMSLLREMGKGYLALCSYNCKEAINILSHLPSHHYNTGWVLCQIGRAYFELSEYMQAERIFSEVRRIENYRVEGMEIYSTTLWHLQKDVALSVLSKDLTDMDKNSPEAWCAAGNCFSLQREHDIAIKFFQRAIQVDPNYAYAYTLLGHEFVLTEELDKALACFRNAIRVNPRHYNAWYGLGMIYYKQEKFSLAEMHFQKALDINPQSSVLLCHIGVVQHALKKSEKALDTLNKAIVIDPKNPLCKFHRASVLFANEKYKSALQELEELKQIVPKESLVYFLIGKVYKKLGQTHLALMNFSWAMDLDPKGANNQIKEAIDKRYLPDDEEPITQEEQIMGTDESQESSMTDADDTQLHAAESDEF", "UniProt P16790": "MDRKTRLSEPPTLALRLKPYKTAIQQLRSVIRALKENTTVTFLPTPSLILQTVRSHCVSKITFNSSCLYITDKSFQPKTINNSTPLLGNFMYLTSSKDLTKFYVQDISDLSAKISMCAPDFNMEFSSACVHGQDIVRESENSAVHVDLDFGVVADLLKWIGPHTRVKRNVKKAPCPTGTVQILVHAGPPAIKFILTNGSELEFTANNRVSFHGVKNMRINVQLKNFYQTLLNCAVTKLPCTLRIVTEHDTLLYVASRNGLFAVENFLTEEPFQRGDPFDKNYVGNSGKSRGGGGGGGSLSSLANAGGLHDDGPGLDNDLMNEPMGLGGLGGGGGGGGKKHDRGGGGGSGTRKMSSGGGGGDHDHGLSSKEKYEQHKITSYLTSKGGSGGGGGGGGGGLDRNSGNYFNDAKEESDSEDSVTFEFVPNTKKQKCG"}, "source": "paper PMC3390409", "molecular_target": "APC3 (anaphase-promoting complex subunit 3) (human (endogenous in MRC-5 and 293T)) (UniProt P30260)", "assay": "co-IP; lysates of MRC-5 infected with viruses carrying native (untagged) UL21a alleles or the UL21a deletion, 20-24 hpi, with or without 10 µM MG132; APC3 antibody on protein A Dynabeads; 0.5% NP-40, 50 mM Tris-Cl pH 8.0, 125 mM NaCl; immunoblot", "note": "No constants are given. Whether binding was seen depends on the method and setting. Binding seen in cells or lysates may run through a third protein."}
{"substance": "pUL44 (viral DNA polymerase accessory factor UL44) (from UniProt P16790 1-433)", "values": [{"measurement": "binding", "value": "no binding"}]}
